Assay results taken from the supplement of paper PMC10727501.
The list shows a part of the results. This data set is noisy: repeats of one test often differ as much as different tests do.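 Researchers measured free-swimming zebrafish larvae's O-bend response probability to dark flashes (naive: first five; training: remaining flashes of four 60-flash blocks; test: later 60-flash block) and OMR turning toward alternating leftward/rightward LED motion. Six treated larvae were compared to sixty 0.1% DMSO controls, with |SSMD|≥2 marking a hit.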

Experiments:
Conditions in all cases: 10 µM; pre-incubation: 30-90 min
[1] = system: Danio rerio larvae (5 dpf, TLF); experiment: OMR-Perf (SSMD vs DMSO vehicle); higher = higher than vehicle (e.g. higher dark-flash O-bend response probability, or better optomotor performance)
[2] = system: Danio rerio larvae (5 dpf, TLF); experiment: Prob-Test (SSMD vs DMSO vehicle); higher = higher than vehicle (e.g. higher dark-flash O-bend response probability, or better optomotor performance)
[3] = system: Danio rerio larvae (5 dpf, TLF); experiment: Prob-Naive (SSMD vs DMSO vehicle); higher = higher than vehicle (e.g. higher dark-flash O-bend response probability, or better optomotor performance)
[4] = system: Danio rerio larvae (5 dpf, TLF); experiment: Prob-Train (SSMD vs DMSO vehicle); higher = higher than vehicle (e.g. higher dark-flash O-bend response probability, or better optomotor performance)

Row | SMILES | OMR-Perf [1] | Prob-Test [2] | Prob-Naive [3] | Prob-Train [4]
1 | COc1cc(C(C)=O)ccc1OCCCN1CCC(c2noc3cc(F)ccc23)CC1 [Iloperidone] | -1.01 | -1.15 | 0.26 | 0.233
2 | CCC(=O)O[C@@]1(C(=O)CCl)[C@@H](C)C[C@H]2[C@@H]3C[C@H](F)C4=CC(=O)C=C[C@]4(C)[C@]3(F)[C@H](O)C[C@@]21C [Halobetasol Propionate] | 0.726 | -0.67 | -0.382 | -0.653
3 | CC(O)C(=O)O.CCOc1ccc2nc3cc(N)ccc3c(N)c2c1.O [Ethacridine lactate monohydrate] | 0.255 | -0.618 | -0.294 | -0.122
4 | COc1cnc(NS(=O)(=O)c2ccc(N)cc2)nc1 [Sulfameter] | -0.652 | 0.0481 | 0.0311 | 0.542
5 | Cc1ncc([N+](=O)[O-])n1CCO [Metronidazole] | -0.495 | -0.618 | 0.402 | -0.615
6 | Cc1cccc(C)c1OCC(C)N.Cl (centres undefined) [Mexiletine HCl] | -0.225 | -0.0272 | -0.314 | -0.128
7 | CNCC[C@@H](Oc1ccccc1C)c1ccccc1.Cl [Atomoxetine HCl] | 0.398 | 0.562 | 0.391 | 0.265
8 | Cl.c1ccc(CC2=NCCN2)cc1 [Tolazoline HCl] | 0.028 | -0.24 | -0.685 | -0.000202
9 | COc1cc(OC)c(NC(=O)Nc2cc(C)on2)cc1Cl | 0.42 | 0.0902 | -0.933 | -1.91
10 | CCC(=O)O[C@@]1(C(=O)SCF)[C@H](C)C[C@H]2[C@@H]3C[C@H](F)C4=CC(=O)C=C[C@]4(C)[C@]3(F)[C@H](O)C[C@@]21C [Fluticasone propionate] | 0.61 | -0.0717 | -0.21 | 0.18
11 | Cn1c(=O)c2c(ncn2CC(O)CO)n(C)c1=O (centres undefined) [Dyphylline] | -0.781 | -0.455 | -0.258 | -0.0523
12 | CC(C)C(=O)Nc1ccc([N+](=O)[O-])c(C(F)(F)F)c1 [Flutamide] | -0.698 | -1.64 | -1.6 | -2.83
13 | CC(C)CN(C[C@@H](O)[C@H](Cc1ccccc1)NC(=O)O[C@H]1CO[C@H]2OCC[C@H]21)S(=O)(=O)c1ccc(N)cc1.CCO [Darunavir Ethanolate] | -0.29 | 0.0216 | 0.0934 | 0.0944
14 | CCOc1ccc(NC(C)=O)cc1 [Phenacetin] | -0.113 | -0.329 | 0.131 | -0.0759
15 | COc1nc(C)nc(Cl)c1NC1=NCCN1 [Moxonidine] | -0.54 | -0.337 | 0.285 | 0.127
16 | COc1cc2c(Oc3ccc(NC(=O)C4(C(=O)Nc5ccc(F)cc5)CC4)cc3F)ccnc2cc1OCCCN1CCOCC1 | -0.416 | -1.53 | -0.186 | -1.5
17 | CN(C)c1ccccc1CN1CCCN(Cc2ccccc2N(C)C)C1c1ccncc1 | 0.201 | 0.728 | 0.511 | 0.405
18 | Cc1cc(Nc2cc(CN3CCOCC3)c3nc(C)c(Cc4ccc(Cl)cc4F)n3n2)[nH]n1 | -0.542 | 0.241 | -0.152 | 0.296
19 | [NH2][Pt]([NH2])([Cl])[Cl] [Cisplatin] | -0.252 | -0.0935 | -0.332 | -0.729
20 | CC1(C)[C@@H](OC(=O)CCC(=O)O)CC[C@]2(C)[C@H]3C(=O)C=C4[C@@H]5C[C@@](C)(C(=O)O)CC[C@]5(C)CC[C@@]4(C)[C@]3(C)CC[C@@H]12 [Carbenoxolone Sodium] | -0.377 | -0.522 | 0.0912 | -0.239
21 | COC(=O)N1CCN(Cc2cccc(NC(=O)Nc3ccc(C)nc3)c2F)CC1 | 0.234 | 0.396 | -0.094 | 0.482
22 | NCC[C@H](O)C(=O)N[C@@H]1C[C@H](N)[C@H](O[C@H]2O[C@H](CN)[C@@H](O)[C@@H](O)[C@H]2O)[C@H](O)[C@H]1O[C@H]1O[C@H](CO)[C@@H](O)[C@@H](N)[C@H]1O.O=S(=O)(O)O.O=S(=O)(O)O [Amikacin sulfate] | -0.0075 | -0.00111 | 0.421 | 0.139
23 | CC[C@@H]1/C=C(\C)C[C@H](C)C[C@H](OC)[C@@H]2O[C@@](O)(C(=O)C(=O)N3CCCC[C@H]3C(=O)O[C@H](/C(C)=C/[C@@H]3CC[C@@H](Cl)[C@H](OC)C3)[C@H](C)[C@@H](O)CC1=O)[C@H](C)C[C@@H]2OC [Pimecrolimus] | -0.544 | 0.519 | 0.045 | 0.373
24 | Oc1c(Br)cc(Br)c2cccnc12 [Broxyquinoline] | -1.22 | -1.24 | -0.723 | -1.41
25 | CS(=O)(=O)OCCCCOS(C)(=O)=O [Busulfan] | 0.43 | 0.287 | -0.123 | -0.172
26 | NC(=O)C1CCCc2c1[nH]c1ccc(Cl)cc21 (centres undefined) [EX 527 (Selisistat)] | -0.586 | -0.249 | -3.14 | -2.27

Row | SMILES | OMR-Perf [1] | Prob-Test [2] | Prob-Naive [3] | Prob-Train [4]
27 | Cc1ccc2c(Cl)cc(Cl)c(O)c2n1 [Chlorquinaldol] | -0.343 | -0.77 | -4.55 | -1.51
28 | Cc1ccc(S(=O)(=O)NC(=O)NN2CC3CCCC3C2)cc1 (centres undefined) [Gliclazide] | -0.409 | -0.19 | -0.0702 | -0.341
29 | CC[C@H]1OC(=O)[C@@H](C)[C@@H](O[C@H]2C[C@@](C)(OC)[C@@H](O)[C@H](C)O2)[C@H](C)[C@@H](O[C@@H]2O[C@H](C)C[C@H](N(C)C)[C@@H]2O)[C@](C)(O)C[C@@H](C)CN(C)[C@H](C)[C@@H](O)[C@]1(C)O [Azithromycin] | -0.78 | 0.5 | 0.0343 | 0.347
30 | C=CC(=O)Nc1cccc(Nc2nc(Nc3ccc(OCCOC)cc3)ncc2F)c1 | 0.226 | -0.591 | -0.801 | -0.463
31 | CC(C)(O/N=C(\C(=O)N[C@@H]1C(=O)N2C(C(=O)[O-])=C(C[n+]3ccccc3)CS[C@H]12)c1csc(N)n1)C(=O)O [Ceftazidime Pentahydrate] | -0.153 | 0.0642 | 0.457 | 0.304
32 | CC1=C(/C=C/C(C)=C\C=C\C(C)=C/C(=O)O)C(C)(C)CCC1 [Isotretinoin] | 0.322 | 0.478 | 0.0184 | 0.272
33 | C[N+](C)(C)CCCCCC[N+](C)(C)C.[Br-].[Br-] [Hexamethonium bromide] | -0.369 | 0.62 | -0.288 | 0.928
34 | NC(=O)N1c2ccccc2C=Cc2ccccc21 [Carbamazepine] | 0.593 | -0.169 | 0.0613 | -0.0523
35 | COc1cc(/C=C/C(=O)O)ccc1O [Ferulic Acid] | -0.0902 | 0.16 | -0.695 | 0.145
36 | COc1cc2nc(N(C)CCCNC(=O)C3CCCO3)nc(N)c2cc1OC.Cl (centres undefined) [Alfuzosin HCl] | -0.136 | -0.00289 | 0.463 | 0.256
37 | C[C@H](NC(=O)Cc1cc(F)cc(F)c1)C(=O)N[C@H](C(=O)OC(C)(C)C)c1ccccc1 | 0.0379 | -0.877 | -0.562 | -0.141
38 | COc1ccc(-c2ccc3ncc4c(c3c2)n(-c2ccc(N3CCNCC3)c(C(F)(F)F)c2)c(=O)n4C)cn1.O=C(O)/C=C\C(=O)O | -0.462 | -1.19 | -0.567 | -1.26
39 | CN(C)[C@@H]1C(=O)C(C(=O)NCN2CCCC2)=C(O)[C@@]2(O)C(=O)C3=C(O)c4c(O)cccc4[C@@](C)(O)[C@H]3C[C@@H]12 [Rolitetracycline] | -0.502 | 0.00522 | 0.0912 | -0.184
40 | CC(C)(Oc1ccc(C2CC2(Cl)Cl)cc1)C(=O)O (centres undefined) [Ciprofibrate] | -0.178 | -0.0526 | -0.133 | -0.383
41 | Cc1nc(Nc2ncc(C(=O)Nc3c(C)cccc3Cl)s2)cc(N2CCN(CCO)CC2)n1 [Dasatinib] | 0.426 | -0.0419 | 0.221 | -0.306
42 | COc1cc(Nc2ncc(F)c(Nc3ccc4c(n3)NC(=O)C(C)(C)O4)n2)cc(OC)c1OC.O=S(=O)(O)c1ccccc1 | -0.629 | -0.0922 | -0.109 | -0.421
43 | Nc1ncnc2c1c(-c1cccc(OCc3ccccc3)c1)cn2[C@H]1C[C@@H](CN2CCC2)C1 | 0.078 | 0.115 | -0.0576 | 0.0446
44 | NC(=O)c1ccc(-c2nc(-c3ccc4c(c3)OCO4)c(-c3ccccn3)[nH]2)cc1 | 0.246 | -0.359 | 0.456 | -0.0393
45 | CNS(=O)(=O)Cc1ccc2[nH]cc(CCN(C)C)c2c1.O=C(O)CCC(=O)O [Sumatriptan Succinate] | 0.0155 | 0.687 | -0.146 | 0.436
46 | CCC(=O)NCC[C@@H]1CCc2ccc3c(c21)CCO3 [Ramelteon] | -0.567 | -1.62 | -1.4 | -2.17
47 | O=C(C=Cc1ccccc1)NC(NC(=S)Nc1ccc(Cl)cc1)C(Cl)(Cl)Cl (centres undefined) | 0.0646 | -0.312 | 0.0676 | -0.13
48 | O=C1CCc2cc(OCCCCc3nnnn3C3CCCCC3)ccc2N1 [Cilostazol] | 0.574 | -0.531 | 0.302 | 0.194
49 | CC(C)C[C@H](NC(=O)CNC(=O)c1cc(Cl)ccc1Cl)B(O)O | -0.0724 | 0.31 | 0.0184 | -0.12
50 | CCOc1nc2cccc(C(=O)O)c2n1Cc1ccc(-c2ccccc2-c2nn[nH]n2)cc1 [Candesartan] | 0.0146 | -0.0788 | 0.506 | 0.297
51 | CCc1cccc2c3c([nH]c12)[C@](CC)(CC(=O)O)OCC3 [Etodolac] | 0.541 | -0.343 | 0.134 | -0.463

Some entries already given with just OMR-Perf [1].
Row	SMILES	OMR-Perf [1]
44	NC(=O)c1ccc(-c2nc(-c3ccc4c(c3)OCO4)c(-c3ccccn3)[nH]2)cc1	0.246
45	CNS(=O)(=O)Cc1ccc2[nH]cc(CCN(C)C)c2c1.O=C(O)CCC(=O)O [Sumatriptan Succinate]	0.0155
46	CCC(=O)NCC[C@@H]1CCc2ccc3c(c21)CCO3 [Ramelteon]	-0.567
